One test deals with Par3 PDZ3 (rat) (UniProt Q9Z340). In words: crystal structure; Par3 PDZ3 (7–15 mg/ml) mixed with Par6β PBM peptide at 1:3; hanging drop, 16 °C, 2.4 M ammonium sulfate, 0.1 M citrate pH 4.0; both purified.
Test [1] addresses recombinant Par6 PB1 (mouse) (UniProt Q9JK83). In words: SEC; analytical gel filtration, Superdex 200 increase 10/300 GL, 50 mM Tris-HCl pH 8.0, 100 mM (or up to 2 M) NaCl, 1 mM DTT, 1 mM EDTA; both purified. On the technique in general: SEC sorts molecules by how far they enter the pores of the column.

Sequences of proteins named here, by UniProt entry; tags and fusion partners are left off. Residues count along the entry.
UniProt Q9Z340, residues 582-685: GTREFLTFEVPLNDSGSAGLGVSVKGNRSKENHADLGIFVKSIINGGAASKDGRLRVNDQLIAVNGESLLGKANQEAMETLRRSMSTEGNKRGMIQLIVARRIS

Results are given in words; binding and its absence hold for the method and conditions named. Some binding calls cover weakened binding; strength is not graded here.

B1: Par6β PBM peptide (peptide)
peptide: LEEDGTIITL
Consider B1, for which, in the test with Par3 PDZ3 (rat), the binding result was “binds”.

B2: recombinant Par6 PB1 (domain or fragment, UniProt Q9JK83 16-96)
chain: TMEVKSKFGAEFRRFSLERSKPGKFEEFYGLLQHVHKIPNVDVLVGYADIHGDLLPINNDDNYHKAVSTANPLLRIFIQKK
Consider B2, for which the binding result in test [1] is recorded as “binds”.

These data come from paper PMC7211019.
